# Measurements taken from US20080181875A1, “USE OF CYCLOPHILIN AS ANTIOXIDANT AND PREVENTION OF CYCLOSPORIN A-INDUCED TOXICITY IN CELL TRANSPLANTATION BY OVEREXPRESSION OF CYCLOPHILIN” (priority 2002, published 2008).
# System: CypA
# Assay: CypA expression level in gene-transfected cells by Western blot
# Assay type: cell-based, rat
# Conditions: transfected H9c2 cells, c-myc and CypA antibodies
substance,measurement,value
"CypA/W121F: mutated rat CypA with phenylalanine instead of tryptophan at position 121, transfected into H9c2 myoblasts",CypA expression level relative to base expression from chromosomal DNA,twice as much
